The source of these data is the supplement of paper PMC12819154, “High-throughput peptide-centric local stability assay extends protein–ligand identification to membrane proteins, tissues and bacteria” (Nature Structural & Molecular Biology, 2025).

The chains behind the UniProt entries cited, without tags or fusion partners. Where a name states a change or a piece, a line headed by the entry shows the natural chain unless it says otherwise.
UniProt Q05048: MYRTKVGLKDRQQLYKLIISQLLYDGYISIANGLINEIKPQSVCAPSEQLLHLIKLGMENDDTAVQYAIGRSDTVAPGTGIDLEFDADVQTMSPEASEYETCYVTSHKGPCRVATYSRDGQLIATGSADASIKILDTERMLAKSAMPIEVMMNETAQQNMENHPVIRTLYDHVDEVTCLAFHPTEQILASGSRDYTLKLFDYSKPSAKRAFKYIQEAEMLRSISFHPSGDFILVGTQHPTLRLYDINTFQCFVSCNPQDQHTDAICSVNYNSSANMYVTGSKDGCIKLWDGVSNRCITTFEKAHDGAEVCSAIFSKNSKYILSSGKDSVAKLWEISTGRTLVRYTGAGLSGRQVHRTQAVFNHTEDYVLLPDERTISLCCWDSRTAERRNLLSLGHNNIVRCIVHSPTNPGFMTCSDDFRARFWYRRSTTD
UniProt Q05519: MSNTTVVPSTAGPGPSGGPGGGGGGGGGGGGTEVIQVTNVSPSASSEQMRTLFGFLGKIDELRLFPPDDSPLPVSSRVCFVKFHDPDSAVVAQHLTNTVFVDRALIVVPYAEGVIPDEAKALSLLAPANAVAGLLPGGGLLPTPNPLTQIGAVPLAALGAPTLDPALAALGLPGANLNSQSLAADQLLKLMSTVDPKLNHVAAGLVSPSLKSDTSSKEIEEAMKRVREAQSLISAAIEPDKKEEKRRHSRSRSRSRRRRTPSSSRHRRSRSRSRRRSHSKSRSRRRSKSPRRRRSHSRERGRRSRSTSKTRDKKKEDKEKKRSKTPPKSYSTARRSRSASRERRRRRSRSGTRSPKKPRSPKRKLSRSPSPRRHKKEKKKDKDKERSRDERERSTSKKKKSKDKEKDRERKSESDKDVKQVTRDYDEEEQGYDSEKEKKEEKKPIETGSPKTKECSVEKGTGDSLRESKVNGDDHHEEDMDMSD
UniProt Q12766: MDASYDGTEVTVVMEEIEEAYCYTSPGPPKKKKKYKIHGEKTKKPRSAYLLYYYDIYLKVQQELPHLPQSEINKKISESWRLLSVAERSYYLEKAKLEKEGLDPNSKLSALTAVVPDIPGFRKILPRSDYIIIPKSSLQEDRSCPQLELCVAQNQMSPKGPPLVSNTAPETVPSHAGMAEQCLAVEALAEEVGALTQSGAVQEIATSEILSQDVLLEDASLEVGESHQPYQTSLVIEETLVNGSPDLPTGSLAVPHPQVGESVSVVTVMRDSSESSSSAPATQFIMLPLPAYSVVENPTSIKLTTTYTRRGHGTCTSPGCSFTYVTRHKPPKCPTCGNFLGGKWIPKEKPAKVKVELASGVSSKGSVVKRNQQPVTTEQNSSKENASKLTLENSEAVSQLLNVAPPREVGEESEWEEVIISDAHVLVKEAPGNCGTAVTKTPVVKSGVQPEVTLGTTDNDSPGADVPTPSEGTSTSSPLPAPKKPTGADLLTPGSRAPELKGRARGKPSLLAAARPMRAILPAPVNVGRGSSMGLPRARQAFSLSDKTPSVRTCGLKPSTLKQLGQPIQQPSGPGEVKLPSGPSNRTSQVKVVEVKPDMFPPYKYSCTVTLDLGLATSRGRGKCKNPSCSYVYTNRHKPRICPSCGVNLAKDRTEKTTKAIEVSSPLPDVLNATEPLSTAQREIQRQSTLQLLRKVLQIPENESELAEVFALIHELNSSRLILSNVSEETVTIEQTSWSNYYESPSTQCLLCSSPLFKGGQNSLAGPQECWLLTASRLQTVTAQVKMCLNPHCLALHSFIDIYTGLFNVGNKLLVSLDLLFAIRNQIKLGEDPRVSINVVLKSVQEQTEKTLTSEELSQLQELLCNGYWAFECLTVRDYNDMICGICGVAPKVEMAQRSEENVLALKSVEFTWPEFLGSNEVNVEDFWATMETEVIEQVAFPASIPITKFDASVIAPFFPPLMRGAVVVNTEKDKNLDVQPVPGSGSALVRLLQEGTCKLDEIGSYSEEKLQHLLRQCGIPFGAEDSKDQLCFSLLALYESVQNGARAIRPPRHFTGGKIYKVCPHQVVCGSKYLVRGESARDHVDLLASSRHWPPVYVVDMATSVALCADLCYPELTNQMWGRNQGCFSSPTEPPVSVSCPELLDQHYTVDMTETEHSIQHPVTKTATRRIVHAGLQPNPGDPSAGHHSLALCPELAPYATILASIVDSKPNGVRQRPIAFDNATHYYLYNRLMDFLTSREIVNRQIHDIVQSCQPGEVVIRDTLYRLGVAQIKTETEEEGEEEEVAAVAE
UniProt Q03111: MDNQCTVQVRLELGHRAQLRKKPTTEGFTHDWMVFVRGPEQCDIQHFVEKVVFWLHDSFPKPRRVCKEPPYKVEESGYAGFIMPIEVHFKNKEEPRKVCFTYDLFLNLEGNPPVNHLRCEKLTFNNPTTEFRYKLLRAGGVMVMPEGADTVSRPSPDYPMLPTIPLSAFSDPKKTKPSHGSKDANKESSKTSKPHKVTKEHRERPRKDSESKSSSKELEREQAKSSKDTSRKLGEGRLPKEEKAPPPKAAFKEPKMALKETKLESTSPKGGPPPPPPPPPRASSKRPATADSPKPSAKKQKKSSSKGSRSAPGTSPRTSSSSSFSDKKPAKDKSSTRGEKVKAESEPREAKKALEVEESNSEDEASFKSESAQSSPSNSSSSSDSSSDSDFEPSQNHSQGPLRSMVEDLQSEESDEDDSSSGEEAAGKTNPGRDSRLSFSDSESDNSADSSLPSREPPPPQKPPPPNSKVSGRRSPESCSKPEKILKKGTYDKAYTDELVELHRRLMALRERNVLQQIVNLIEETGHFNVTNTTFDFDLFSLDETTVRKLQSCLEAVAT
UniProt Q00765: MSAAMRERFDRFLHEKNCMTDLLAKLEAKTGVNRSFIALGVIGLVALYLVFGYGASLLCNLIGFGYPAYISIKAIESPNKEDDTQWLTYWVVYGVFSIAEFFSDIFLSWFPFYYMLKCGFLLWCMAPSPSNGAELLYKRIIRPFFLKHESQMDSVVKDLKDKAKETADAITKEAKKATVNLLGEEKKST
UniProt Q01167: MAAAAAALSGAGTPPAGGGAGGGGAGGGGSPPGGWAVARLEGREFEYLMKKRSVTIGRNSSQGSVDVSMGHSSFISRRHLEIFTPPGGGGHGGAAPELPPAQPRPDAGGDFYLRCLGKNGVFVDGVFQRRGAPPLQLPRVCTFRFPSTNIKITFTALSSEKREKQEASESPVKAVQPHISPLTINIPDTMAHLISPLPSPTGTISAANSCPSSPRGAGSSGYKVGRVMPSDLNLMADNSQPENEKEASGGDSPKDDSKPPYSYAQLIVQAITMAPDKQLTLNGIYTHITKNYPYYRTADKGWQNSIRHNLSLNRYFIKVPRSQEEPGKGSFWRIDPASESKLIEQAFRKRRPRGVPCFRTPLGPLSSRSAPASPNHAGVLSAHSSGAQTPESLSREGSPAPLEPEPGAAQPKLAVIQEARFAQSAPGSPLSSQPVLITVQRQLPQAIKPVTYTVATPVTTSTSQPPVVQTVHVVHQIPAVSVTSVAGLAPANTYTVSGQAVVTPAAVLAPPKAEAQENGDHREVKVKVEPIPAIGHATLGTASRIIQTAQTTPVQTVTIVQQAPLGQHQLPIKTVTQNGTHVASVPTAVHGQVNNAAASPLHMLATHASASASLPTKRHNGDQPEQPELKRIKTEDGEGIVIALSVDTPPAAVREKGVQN
UniProt Q08043, whole entry: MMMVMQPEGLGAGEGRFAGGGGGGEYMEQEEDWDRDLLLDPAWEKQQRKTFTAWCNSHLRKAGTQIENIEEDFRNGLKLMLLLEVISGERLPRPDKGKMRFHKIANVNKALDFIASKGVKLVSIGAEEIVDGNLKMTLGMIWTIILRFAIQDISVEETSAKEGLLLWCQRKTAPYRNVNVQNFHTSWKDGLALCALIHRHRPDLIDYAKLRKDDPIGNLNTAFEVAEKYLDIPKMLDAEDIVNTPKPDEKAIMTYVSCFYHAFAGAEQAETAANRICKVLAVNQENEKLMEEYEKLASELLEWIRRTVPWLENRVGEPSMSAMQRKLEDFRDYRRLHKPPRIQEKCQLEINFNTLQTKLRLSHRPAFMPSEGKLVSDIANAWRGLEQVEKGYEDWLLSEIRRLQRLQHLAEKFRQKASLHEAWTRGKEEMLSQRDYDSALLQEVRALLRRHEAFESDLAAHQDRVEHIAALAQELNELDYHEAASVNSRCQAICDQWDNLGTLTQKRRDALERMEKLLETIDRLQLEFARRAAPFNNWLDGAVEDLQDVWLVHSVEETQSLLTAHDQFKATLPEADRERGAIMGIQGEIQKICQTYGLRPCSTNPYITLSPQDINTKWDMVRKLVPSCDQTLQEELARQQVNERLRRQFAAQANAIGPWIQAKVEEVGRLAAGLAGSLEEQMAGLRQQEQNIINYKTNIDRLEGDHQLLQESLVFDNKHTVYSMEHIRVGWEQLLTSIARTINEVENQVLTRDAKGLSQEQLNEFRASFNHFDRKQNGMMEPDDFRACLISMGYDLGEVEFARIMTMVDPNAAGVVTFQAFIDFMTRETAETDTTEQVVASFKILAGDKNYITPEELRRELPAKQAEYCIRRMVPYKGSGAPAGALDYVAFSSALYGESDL
UniProt Q00577: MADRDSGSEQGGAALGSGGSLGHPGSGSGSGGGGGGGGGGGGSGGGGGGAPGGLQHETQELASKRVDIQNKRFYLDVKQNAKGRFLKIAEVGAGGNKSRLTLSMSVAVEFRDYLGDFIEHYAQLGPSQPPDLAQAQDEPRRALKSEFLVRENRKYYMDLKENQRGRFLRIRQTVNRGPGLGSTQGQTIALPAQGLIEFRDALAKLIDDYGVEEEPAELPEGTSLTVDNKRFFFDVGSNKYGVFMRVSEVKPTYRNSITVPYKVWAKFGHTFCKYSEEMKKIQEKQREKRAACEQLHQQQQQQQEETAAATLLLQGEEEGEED
UniProt Q0VD83: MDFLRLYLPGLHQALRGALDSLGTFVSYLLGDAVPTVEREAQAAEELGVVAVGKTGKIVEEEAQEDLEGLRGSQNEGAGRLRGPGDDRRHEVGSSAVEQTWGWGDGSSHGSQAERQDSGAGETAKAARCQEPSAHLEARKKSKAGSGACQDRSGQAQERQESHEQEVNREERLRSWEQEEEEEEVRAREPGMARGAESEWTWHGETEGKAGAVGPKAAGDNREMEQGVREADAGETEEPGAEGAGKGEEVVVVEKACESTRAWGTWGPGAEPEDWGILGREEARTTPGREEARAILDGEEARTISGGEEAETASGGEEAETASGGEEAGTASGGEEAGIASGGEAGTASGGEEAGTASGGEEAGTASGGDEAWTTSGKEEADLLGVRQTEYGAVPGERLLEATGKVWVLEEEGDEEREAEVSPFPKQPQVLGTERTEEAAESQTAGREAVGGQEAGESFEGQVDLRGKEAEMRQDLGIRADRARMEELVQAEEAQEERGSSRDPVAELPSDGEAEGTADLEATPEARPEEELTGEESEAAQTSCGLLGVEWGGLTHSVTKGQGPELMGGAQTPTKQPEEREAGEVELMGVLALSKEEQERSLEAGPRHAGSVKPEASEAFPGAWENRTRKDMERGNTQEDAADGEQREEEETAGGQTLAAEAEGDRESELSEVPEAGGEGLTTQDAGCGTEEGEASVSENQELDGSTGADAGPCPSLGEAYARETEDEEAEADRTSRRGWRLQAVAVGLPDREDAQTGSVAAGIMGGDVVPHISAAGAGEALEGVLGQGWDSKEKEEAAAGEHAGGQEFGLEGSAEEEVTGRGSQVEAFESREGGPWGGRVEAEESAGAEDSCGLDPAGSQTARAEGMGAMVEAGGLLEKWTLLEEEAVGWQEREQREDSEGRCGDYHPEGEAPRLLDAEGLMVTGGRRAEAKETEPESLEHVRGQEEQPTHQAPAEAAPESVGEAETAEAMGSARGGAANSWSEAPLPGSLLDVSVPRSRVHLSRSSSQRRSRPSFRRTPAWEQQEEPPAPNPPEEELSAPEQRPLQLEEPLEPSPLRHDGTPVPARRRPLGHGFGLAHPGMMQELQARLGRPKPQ
UniProt Q05195: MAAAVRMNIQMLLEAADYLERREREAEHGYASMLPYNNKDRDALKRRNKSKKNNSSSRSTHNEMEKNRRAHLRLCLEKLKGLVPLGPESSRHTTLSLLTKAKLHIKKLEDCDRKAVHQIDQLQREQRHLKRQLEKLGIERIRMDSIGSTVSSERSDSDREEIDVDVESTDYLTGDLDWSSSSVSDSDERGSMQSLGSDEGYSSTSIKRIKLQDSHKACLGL
UniProt Q03113, whole entry: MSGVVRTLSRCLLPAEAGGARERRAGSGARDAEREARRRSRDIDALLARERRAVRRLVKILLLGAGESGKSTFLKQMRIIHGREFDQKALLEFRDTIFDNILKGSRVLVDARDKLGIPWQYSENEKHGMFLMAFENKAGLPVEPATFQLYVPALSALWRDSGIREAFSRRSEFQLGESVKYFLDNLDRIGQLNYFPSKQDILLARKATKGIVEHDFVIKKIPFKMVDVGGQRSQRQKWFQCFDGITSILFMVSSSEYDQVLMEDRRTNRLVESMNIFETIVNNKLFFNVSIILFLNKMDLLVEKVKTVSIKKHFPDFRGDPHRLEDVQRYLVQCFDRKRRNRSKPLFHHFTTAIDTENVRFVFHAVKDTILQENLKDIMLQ

This is one part of the list. Small differences around the control level are noise.

Compound in the assay: CN[C@@H]1C[C@H]2O[C@@](C)([C@@H]1OC)n1c3ccccc3c3c4c(c5c6ccccc6n2c5c31)C(=O)NC4 [staurosporine]
The experiment in a line: log2 fold change of tryptic peptide abundance, ligand vs vehicle (limited proteolysis) (log2 ratio); higher = more trypsin-susceptible (destabilized). To be noted: ligand concentration: 20 uM; sample: K562 cleared lysate; digestion: 4 min, 22 C (HT-PELSA RT4min, Orbitrap Astral).
With “NCBP1 (peptide sequence: IQKELEEAK, peptide start residue: 655) (UniProt Q09161)”, the log2 fold change was 0.459.
“MVK (peptide sequence: VDLSLPNIGIK, peptide start residue: 49) (UniProt Q03426)”: the log2 fold change is 0.144.
For the target “PLCB2 (peptide sequence: EALAEYEAR, peptide start residue: 1122) (UniProt Q00722)”, the log2 fold change was 0.125.
On to “AHNAK (peptide sequence: VSMPDVDLNLKGPK, peptide start residue: 1781) (UniProt Q09666)”, for which the log2 fold change is 0.133.
The figure for “TRIM32 (peptide sequence: ELTLQDVELLK, peptide start residue: 272) (UniProt Q13049)” is -0.466; for “AMPD3 (peptide sequence: FSLHEMLNEMSEFK, peptide start residue: 285) (UniProt Q01432)” it is 0.526.
As for “CSTF1 (peptide sequence: NLLSLGHNNIVR, peptide start residue: 390) (UniProt Q05048)”, the log2 fold change was -0.562.
For “SCAP (peptide sequence: QLAVRPSTPHTITLQPSSFR, peptide start residue: 477) (UniProt Q12770)”, the log2 fold change was -0.178.
On to “ZFP36L1 (peptide sequence: CHFIHNAEER, peptide start residue: 173) (UniProt Q07352)”, for which the log2 fold change was -0.254.
With “DMTN (peptide sequence: TSLPHFHHPETSRPDSNIYK, peptide start residue: 123) (UniProt Q08495)”, the log2 fold change is -0.4.
The figure for “YWHAH (peptide sequence: YDDMASAMK, peptide start residue: 20) (UniProt Q04917)” is 0.104; for “UniProt Q05519 (peptide sequence: EIEEAMK, peptide start residue: 218)” it is -0.389.
For “HMGXB3 (peptide sequence: QAFSLSDKTPSVR, peptide start residue: 540) (UniProt Q12766)”, the log2 fold change was 0.428.
Turning to “PTPN11 (peptide sequence: FIYMAVQHYIETLQR, peptide start residue: 513) (UniProt Q06124)”, the log2 fold change worked out at 0.396.
The figure for “MLLT1 (peptide sequence: KLQSCLEAVAT, peptide start residue: 549) (UniProt Q03111)” is -0.172; for “CREM (peptide sequence: KILNELSSDVPGVPK, peptide start residue: 123) (UniProt Q03060)” it is -0.2.
The same measure for “REEP5 (peptide sequence: AKETADAITK, peptide start residue: 163) (UniProt Q00765)”: 0.302; for “ZBED6 (peptide sequence: GKPGSHLGTSTLQR, peptide start residue: 161) (UniProt P86452)”: 0.289; for “EIF4G1 (peptide sequence: RGGPPGPPISR, peptide start residue: 1032) (UniProt Q04637)”: 0.439.
The same measure for “SOX4 (peptide sequence: HMADYPDYK, peptide start residue: 100) (UniProt Q06945)”: 0.307; for “KHDRBS1 (peptide sequence: ILGPQGNTIKR, peptide start residue: 176) (UniProt Q07666)”: 0.137.
For “ECH1 (peptide sequence: VNLLYSR, peptide start residue: 277) (UniProt Q13011)”, the log2 fold change turned out to be 0.253.
With “COASY (peptide sequence: LASILTSAAR, peptide start residue: 22) (UniProt Q13057)”, the log2 fold change was 0.125.
With “FANCC (peptide sequence: NMVLSLASELR, peptide start residue: 152) (UniProt Q00597)”, the log2 fold change is -0.0898.
Consider “FOXK2 (peptide sequence: TPLGPLSSR, peptide start residue: 360) (UniProt Q01167)”, for which the log2 fold change came to 0.154.
The figure for “UniProt Q08043 (peptide sequence: KAGTQIENIEEDFR, peptide start residue: 47)” is 0.453.
Consider “CEBPZ (peptide sequence: MLSALLTGVNR, peptide start residue: 482) (UniProt Q03701)”, for which the log2 fold change stood at 0.155.
The same measure for “UniProt Q0VG06 (peptide sequence: VYHSTPSDLCVVDLSR, peptide start residue: 358)”: 0.156; for “PURA (peptide sequence: FFFDVGSNK, peptide start residue: 231) (UniProt Q00577)”: -0.283.
For “RBM3 (peptide sequence: YYDSRPGGYGYGYGR, peptide start residue: 117) (UniProt P98179)”, the log2 fold change was -0.0931.
The same measure for “NFIA (peptide sequence: GIPLESTDGER, peptide start residue: 140) (UniProt Q12857)”: -0.113; for “ZNF616 (peptide sequence: ATQGHLTFK, peptide start residue: 2) (UniProt Q08AN1)”: 0.308.
The same measure for “CALCOCO2 (peptide sequence: LVQGDQDKTEQLEQLKK, peptide start residue: 247) (UniProt Q13137)”: 0.279; for “UniProt Q0VD83 (peptide sequence: LLDAEGLMVTGGR, peptide start residue: 916)”: 0.209.
“FCHO2 (peptide sequence: KTFALPGIIK, peptide start residue: 288) (UniProt Q0JRZ9)”: the log2 fold change was -0.471.
For “UniProt Q05195 (peptide sequence: HTTLSLLTK, peptide start residue: 92)”, the log2 fold change came out at 0.276.
Turning to “UniProt Q12824 (peptide sequence: TYAFSENPLPTVEIAIR, peptide start residue: 325)”, the log2 fold change was -0.243.
For the target “PPP3CA (peptide sequence: ITSFEEAK, peptide start residue: 467) (UniProt Q08209)”, the log2 fold change is -0.083.
Turning to “ITK (peptide sequence: AEKLLLDTGK, peptide start residue: 249) (UniProt Q08881)”, the log2 fold change was -0.00957.
On to “GNA12 (peptide sequence: CLLPAEAGGAR, peptide start residue: 11) (UniProt Q03113)”, for which the log2 fold change was 0.0374.
